From PMC5053705
No constants are given. Whether binding was seen depends on the method and setting. Binding seen in cells or lysates may run through a third protein. Some binding calls cover weakened binding; strength is not graded here.

The chains behind the UniProt entries cited, without tags or fusion partners.
UniProt Q9NQB0: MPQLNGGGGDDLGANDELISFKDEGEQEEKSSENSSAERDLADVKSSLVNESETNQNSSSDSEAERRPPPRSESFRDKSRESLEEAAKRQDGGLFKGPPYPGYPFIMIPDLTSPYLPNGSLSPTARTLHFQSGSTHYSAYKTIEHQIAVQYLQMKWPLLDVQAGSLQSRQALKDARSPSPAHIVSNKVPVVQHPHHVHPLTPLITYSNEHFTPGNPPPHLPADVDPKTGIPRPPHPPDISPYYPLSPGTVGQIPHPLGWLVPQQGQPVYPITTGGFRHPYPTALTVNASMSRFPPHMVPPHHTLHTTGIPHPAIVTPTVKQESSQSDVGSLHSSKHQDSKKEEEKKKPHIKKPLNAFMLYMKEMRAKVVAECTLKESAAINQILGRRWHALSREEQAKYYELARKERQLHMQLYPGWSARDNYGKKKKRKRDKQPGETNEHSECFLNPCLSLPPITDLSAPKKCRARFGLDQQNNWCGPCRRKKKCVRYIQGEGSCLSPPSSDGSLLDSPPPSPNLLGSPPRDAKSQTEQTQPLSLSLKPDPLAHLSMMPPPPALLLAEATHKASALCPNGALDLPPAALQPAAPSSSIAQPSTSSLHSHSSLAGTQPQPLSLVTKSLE
UniProt P35222: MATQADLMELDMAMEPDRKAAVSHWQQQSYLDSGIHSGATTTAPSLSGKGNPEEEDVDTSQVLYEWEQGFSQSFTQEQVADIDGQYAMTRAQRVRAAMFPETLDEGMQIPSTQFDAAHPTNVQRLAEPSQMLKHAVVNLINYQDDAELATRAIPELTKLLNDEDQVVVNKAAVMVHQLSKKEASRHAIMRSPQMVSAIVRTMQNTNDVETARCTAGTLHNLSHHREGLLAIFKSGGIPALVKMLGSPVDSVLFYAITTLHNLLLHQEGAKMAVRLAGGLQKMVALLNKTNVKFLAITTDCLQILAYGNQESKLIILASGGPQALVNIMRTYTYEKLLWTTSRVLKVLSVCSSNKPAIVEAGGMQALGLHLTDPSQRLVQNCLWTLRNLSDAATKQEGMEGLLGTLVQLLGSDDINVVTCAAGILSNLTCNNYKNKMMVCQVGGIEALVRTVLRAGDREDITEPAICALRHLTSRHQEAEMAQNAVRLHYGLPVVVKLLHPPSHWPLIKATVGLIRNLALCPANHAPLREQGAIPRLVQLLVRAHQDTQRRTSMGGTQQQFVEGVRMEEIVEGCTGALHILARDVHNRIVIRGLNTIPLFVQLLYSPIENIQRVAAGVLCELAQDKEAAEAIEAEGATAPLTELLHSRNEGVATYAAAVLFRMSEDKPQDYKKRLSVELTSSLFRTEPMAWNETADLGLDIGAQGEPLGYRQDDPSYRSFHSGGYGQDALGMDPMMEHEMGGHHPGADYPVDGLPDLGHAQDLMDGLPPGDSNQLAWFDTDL
UniProt Q9BT81: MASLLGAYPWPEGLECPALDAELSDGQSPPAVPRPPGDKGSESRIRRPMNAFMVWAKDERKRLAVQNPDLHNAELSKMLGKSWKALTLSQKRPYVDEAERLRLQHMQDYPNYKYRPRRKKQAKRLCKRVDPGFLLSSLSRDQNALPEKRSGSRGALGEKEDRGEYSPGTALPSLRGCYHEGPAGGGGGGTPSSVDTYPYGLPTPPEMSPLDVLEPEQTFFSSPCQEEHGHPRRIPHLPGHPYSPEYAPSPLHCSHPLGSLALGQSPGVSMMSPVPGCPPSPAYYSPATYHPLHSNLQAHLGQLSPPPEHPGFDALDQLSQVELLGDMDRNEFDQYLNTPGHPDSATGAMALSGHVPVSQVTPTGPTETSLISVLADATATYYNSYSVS

Key:
Myc/TCF4 = Myc/TCF4 (UniProt Q9NQB0); experiment: co-IP; HEK293 cells transiently co-transfected with HA/SOX7 and Myc/β-catenin or Myc/TCF4; Dynabeads co-immunoprecipitation kit; Western blot of lysate and eluate; IgG as control antibody
Myc/β-catenin = Myc/β-catenin (UniProt P35222); experiment: as above

Question: How did the binding (Myc/TCF4) turn out when HA/SOX7 (from UniProt Q9BT81 1-388) was run?
Answer: binds

Question: And the binding (Myc/β-catenin)?
Answer: binds
